Test results from US8030293B2, “Methods of optimizing drug therapeutic efficacy for treatment of immune-mediated gastrointestinal disorders” (Hopital-Sainte-Justine, priority 1998, dated 2011).

Experiment: Erythrocyte 6-MP metabolite levels by reverse phase HPLC in IBD patients on 6-MP drug (Example I)
Details: Table 1

## Nc1nc2nc[nH]c2c(=S)[nH]1 [6-TG, 6-thioguanine]
  6-TG level associated with remission: > 225 pmol per 8×10^8 RBC
